Experimental data from US20090233893A1, “Methods of Dissolving Beta-Sheet Proteins and Uses Thereof” (priority 2006, published 2009).
Several values for one entry are separate records, joined by “and”; a condition that tells them apart may be missing. Equal values may be shown once.

Key:
B. mori fibroin = conditions: for Amide II peak of metal chelator-dissolved protein: B. mori fibroin dissolved in 500 mM chelator/heavy water solution; for Amide I peak of metal chelator-dissolved protein: B. mori fibroin dissolved in 500 mM chelator/heavy water solution (Cu pD 13.7, Li pD 12.8)
[1] = test system: tau paired helical filaments; conditions: paired helical filaments dissolved in 500 mM chelator/heavy water solution

Row | Structure (SMILES) | Amide II peak of metal chelator-dissolved protein (B. mori fibroin) | Amide I peak of metal chelator-dissolved protein (B. mori fibroin) | Amide II peak of metal chelator-dissolved protein [1]
1 | NCCN.[Cu+2].[OH-].[OH-] [Cu^2+en, Cu^2+ ethylene diamine hydroxide] | 1551 cm⁻¹ and 1588 cm⁻¹ | 1652 cm⁻¹ | 1590 cm⁻¹
2 | NCCN.[Br-].[Li+] [Li^+en, Li^+ ethylene diamine bromide] | 1533 cm⁻¹ | 1652 cm⁻¹ | 1570 cm⁻¹
